Patent US5880261
For at least one entry, the source does not settle the construct or the ends of the probe. For part of these data: At least one result comes from cells or an extract, where the contact may be indirect. For part of these data: Where a protein sequence is shown, tags need not be part of it.

By UniProt entry, the sequences of proteins in these tests, tags left out. Where a name states a change or a piece, a line headed by the entry shows the natural chain unless it says otherwise.
UniProt Q9R237: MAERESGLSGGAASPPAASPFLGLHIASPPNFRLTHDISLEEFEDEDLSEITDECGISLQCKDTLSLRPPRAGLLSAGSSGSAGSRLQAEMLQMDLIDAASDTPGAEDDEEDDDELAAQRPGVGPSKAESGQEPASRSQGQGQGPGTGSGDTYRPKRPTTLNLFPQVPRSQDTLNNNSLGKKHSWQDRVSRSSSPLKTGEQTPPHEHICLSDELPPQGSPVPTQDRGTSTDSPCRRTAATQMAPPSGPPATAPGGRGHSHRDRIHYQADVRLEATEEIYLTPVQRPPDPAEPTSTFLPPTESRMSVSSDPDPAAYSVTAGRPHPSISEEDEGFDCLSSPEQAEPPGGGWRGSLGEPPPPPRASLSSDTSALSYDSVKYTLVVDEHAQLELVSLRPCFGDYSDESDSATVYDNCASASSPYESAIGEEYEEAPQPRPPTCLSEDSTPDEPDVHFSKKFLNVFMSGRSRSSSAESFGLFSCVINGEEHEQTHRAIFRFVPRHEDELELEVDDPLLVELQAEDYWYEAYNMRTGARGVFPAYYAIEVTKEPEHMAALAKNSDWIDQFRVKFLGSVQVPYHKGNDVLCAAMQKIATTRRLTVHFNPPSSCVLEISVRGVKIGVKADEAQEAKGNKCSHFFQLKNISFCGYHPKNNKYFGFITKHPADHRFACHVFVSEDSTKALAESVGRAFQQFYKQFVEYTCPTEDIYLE

Experiments:
[1] = tested on: GTII/RIPE3-binding activity including IB1 (betaTC3 nuclear extract) (Mus musculus); test: EMSA; conditions: protein in an extract; label: 32P
[2] = molecular target: T1, Islet-Brain 1 (IB1), overexpressed in betaTC3 cells (Rattus norvegicus) (UniProt Q9R237); test: activity in cells; conditions: +-0.3 SEM over basal, text states 5 fold, protein in cells, protein details: PBKS/IB1 vector, variant of RIPE3, only the site is given
T1 sequence (limits assumed): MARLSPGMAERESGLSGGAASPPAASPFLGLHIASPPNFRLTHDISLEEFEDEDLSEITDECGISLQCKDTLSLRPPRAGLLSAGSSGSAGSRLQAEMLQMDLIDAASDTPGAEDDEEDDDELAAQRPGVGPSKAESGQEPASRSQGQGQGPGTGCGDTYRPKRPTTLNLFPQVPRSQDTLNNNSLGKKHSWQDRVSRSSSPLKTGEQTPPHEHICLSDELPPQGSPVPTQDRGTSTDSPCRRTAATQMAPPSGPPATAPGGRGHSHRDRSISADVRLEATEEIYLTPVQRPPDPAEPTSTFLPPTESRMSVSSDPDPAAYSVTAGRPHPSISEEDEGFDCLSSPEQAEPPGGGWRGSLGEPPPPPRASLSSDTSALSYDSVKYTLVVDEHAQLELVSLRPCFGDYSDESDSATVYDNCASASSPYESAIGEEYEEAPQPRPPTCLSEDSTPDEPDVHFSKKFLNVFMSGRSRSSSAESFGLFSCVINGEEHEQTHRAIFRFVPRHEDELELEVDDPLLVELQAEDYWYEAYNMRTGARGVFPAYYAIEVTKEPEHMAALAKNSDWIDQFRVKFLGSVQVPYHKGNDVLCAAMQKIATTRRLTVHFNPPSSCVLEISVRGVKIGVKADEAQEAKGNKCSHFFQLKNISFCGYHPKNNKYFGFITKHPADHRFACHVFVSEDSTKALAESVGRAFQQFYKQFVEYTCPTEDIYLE

Sequence	binding result [1]	activity on this sequence [2]
GATCTGGAAACTGCAGCTTCAGCCCCTCTGGCCATCTGCTGATCCG (double strand) [RIPE3]	binds	–
GATCTGGAAACTGCAGCTTCAGCCCCTCTGGCCATCTGCTGATCCG (double strand) [5x RIPE3-SV40 minimal promoter-luciferase]	–	2.9 fold
GTAAAGGGTGTATTGATTGGATTACCATCAATACTCAGCTTCT (double strand) [GTII]	binds	–
